Test results from PubChem BioAssay AID504467 (National Center for Advancing Translational Sciences (NCATS), 2011).
In all, about 330,000 compounds went through this assay and about 7,700 (2.3%) were called active. This list was built around the results that the source calls inconclusive (neither active nor inactive); the mix of calls is not that of the screen. The call rests on the fitted dose curve; in most records, active means well fitted inhibition curve with a large enough effect; inconclusive means small, poorly fitted or top-dose-only effect, or effect the other way; inactive means flat fitted curve, though single readings scatter. Potencies of inconclusive entries are doubtful fits and often do not repeat.

assay: qHTS screen for small molecules that inhibit ELG1-dependent DNA repair in human embryonic kidney (HEK293T) cells expressing luciferase-tagged ELG1; conditions: HEK293T ELG1-luciferase reporter, luminescence, 16 h, DNA damage induced by 5-fluorouridine; activity change, negative = inhibition: at 46.1 µM (top of the series); further: nearly all actives have a fitted effect of over 55% in size
In short: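 5-Fluorouridine DNA damage + compound/DMSO, 2,000 cells/well, 16 h, 37 °C/5% CO2. ONE-Glo, 30 min RT, luminescence. Readout = decrease in reporter signal.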
On the % scale 0 is the no-effect control and ±100 the full control effect; potency means the concentration at half of the fitted maximal effect.

| SMILES | activity change, negative = inhibition | Potency |
| --- | --- | --- |
| O=C(CN1CCN(Cc2ccccc2)CC1)Nc1cccc(C(F)(F)F)c1 | inactive: -0.519% |  |
| CC(C)(C)c1ccc(OCCOc2ccc(C(C)(C)C)cc2NC=O)c(NC=O)c1 |  | inconclusive: 16.4 µM [inhibitor, single point] |
| O=C(CSc1nnc(-c2cccc(S(=O)(=O)N3CCOCC3)c2)n1C1CCCCCC1)NCc1ccccc1 |  | inconclusive: 32.6 µM [inhibitor, single point] |
| COc1ccc(N=C2S/C(=C\c3ccc(Cl)c([N+](=O)[O-])c3)C(=O)N2CCN(C)C)cc1 | inactive: -22% |  |
| COc1ccc(C(=O)Nn2c(SCC(=O)N3CCC(C)CC3)nc3ccccc3c2=O)cc1 | inconclusive: 41% [activator] |  |
| Cc1ccc(C(=O)O/N=C(\N)c2ccccn2)cc1 |  | inconclusive: 1.03 µM [activator, partial curve] |
| Cn1cccc1/C=N/NC(=O)CNc1ccc2ccccc2c1 |  | inconclusive: 25.9 µM [inhibitor, single point] |
| CSc1nc(NCCOCCO)c2sc3nc(-c4ccco4)c4c(c3c2n1)CCC4 | inactive: -18.4% |  |
| CC(C)c1ccc(S(=O)(=O)/N=C2\C=C(NS(=O)(=O)c3ccccc3)C(=O)c3ccccc32)cc1 |  | inconclusive: 23.1 µM [inhibitor, single point] |
| Cc1ccc(S(=O)(=O)CC(=O)Nc2nc3ccccc3s2)cc1 | inactive: 1.29% |  |
| OC(CNc1nc(C(F)(F)F)nc2ccccc12)c1ccccc1 (configuration not stated) |  | inconclusive: 25.9 µM [inhibitor, single point] |
| CCOC(=O)C(CC(=O)O)=C(c1ccccc1)c1ccccc1 | inactive: 3.01% |  |
| O=C(N1CCN(c2ccccc2F)CC1)C12CC3CC(CC(C3)C1)C2 | inactive: 25.7% |  |
| Cn1c(=O)c(C(=O)Nc2cnccn2)c(O)c2ccccc21 |  | inconclusive: 4.11 µM [activator, full curve] |
| OC(Cc1ccncc1)(c1ccccc1)c1ccccc1 | inactive: -0.608% |  |
| COc1ccc(NC(=O)CC2C(=O)N(c3ccccc3)C(=O)N2CCc2cccs2)cc1 (configuration not stated) | inactive: -20.2% |  |
| C=CCn1c(Cc2ccc(OC)cc2)nnc1SCC(=O)c1cccc([N+](=O)[O-])c1 |  | inconclusive: 6.31 µM [activator, single point] |
| CC1CN(C(=O)c2cccc(S(=O)(=O)N3CCOCC3)c2)CC(C)O1 (configuration not stated) | inactive: 7.32% |  |
| CCN(CC)c1ccc(C(=O)OCC(=O)N(C)Cc2ccccc2)cc1 | inactive: -9.85% |  |
| Cc1cccc(NC(=O)Cn2nc(-c3ccco3)ccc2=O)c1C | inactive: 0.181% |  |
| Cc1ccc(NC(=S)N(CCCN2CCCC2)Cc2cccn2Cc2ccc(Cl)cc2)cc1C | inactive: 17.7% |  |
| COc1ccc2[nH]c3c(c2c1)CCNC3c1ccc([N+](=O)[O-])o1 (configuration not stated) |  | inconclusive: 29.1 µM [inhibitor, single point] |
| O=[N+]([O-])c1ccc(O)c(C2=NNC(c3ccccc3F)C2)c1 (configuration not stated) |  | inconclusive: 3.66 µM [activator, single point] |
| O=C(C1=C[C@H](c2csc3ccccc23)C[C@H](OCc2ccc(CO)cc2)O1)N1CCN(Cc2ccccc2)CC1 |  | inconclusive: 20.6 µM [inhibitor, single point] |

| SMILES | activity change, negative = inhibition | Potency |
| --- | --- | --- |
| COCCNC(=O)/C(C#N)=C/c1c(N2CCN(c3ccc(OC)cc3)CC2)nc2c(C)cccn2c1=O |  | inconclusive: 23.1 µM [inhibitor, partial curve, poor fit] |
| COc1nc(N/N=C/c2cc3c(cc2Br)OCO3)nc(N2CCOCC2)n1 |  | inconclusive: 25.9 µM [inhibitor, single point] |
| CCOC(=O)c1c(C)[nH]c(C(=O)Nc2ccc3c(c2)OCO3)c1C |  | inconclusive: 2.59 µM [activator, full curve] |
| COc1nc(-c2ccccc2)ccc1-c1noc(-c2ccccc2F)n1 |  | inconclusive: 6.51 µM [activator, partial curve] |
| Cc1ccc(S(=O)(=O)N2CCCCC2)cc1NC(=O)CSCC(=O)O | inactive: 10.9% |  |
| COc1ccc(/C=N/NC(=O)CSc2nnc(C)n2-c2ccccc2)c(OC)c1OC |  | inconclusive: 23.1 µM [inhibitor, partial curve, poor fit] |
| CCSc1nc2c(c(=O)[nH]c(=O)n2C)n1Cc1ccc(Cl)cc1 |  | inconclusive: 6.51 µM [inhibitor, single point] |
| O=C(NCc1ccco1)c1ccc(-c2ccc(Cl)cc2)o1 |  | inconclusive: 9.2 µM [activator, partial curve, poor fit] |
| COc1ccc(OC)c(C2SCCN2S(=O)(=O)c2cccc(C(F)(F)F)c2)c1 (configuration not stated) |  | inconclusive: 29.1 µM [inhibitor, single point] |
| COCCCNC(=O)COc1ccc(-c2nccc(-c3ccccn3)n2)cc1 |  | inconclusive: 18.4 µM [inhibitor, single point] |
| Clc1cccc(Cl)c1/C=N\Nc1nccs1 | inactive: -0.234% |  |
| O=C(NC(=S)Nc1ccc(CN2CCOCC2)cc1)c1ccc([N+](=O)[O-])cc1 |  | inconclusive: 25.9 µM [inhibitor, single point] |
| CN1CCC(CNC(=O)Nc2csc3ccccc23)CC1 | inactive: -6.5% |  |
| CCCc1cc(C(=O)N2CCCC(Cc3ccccc3C)(C(=O)OCC)C2)no1 (configuration not stated) |  | inconclusive: 0.517 µM [inhibitor, partial curve, poor fit] |
| O=C(Cc1cc(=O)[nH][nH]1)N/N=C/c1ccccc1Cl | inactive: 11.1% |  |
| CCOC(=O)c1c(NC(=O)COC(=O)c2cnccn2)sc(C)c1C |  | inconclusive: 9.2 µM [activator, single point] |
| CCc1ccc(CN(Cc2cccnc2)C(=O)/C=C/c2ccc(OC)cc2)cc1 |  | inconclusive: 29.1 µM [inhibitor, single point] |
| O=C(Nc1ccccc1C(=O)Nc1nncs1)c1ccccc1 |  | active: 20.6 µM |
| O=C(NCC1CCCO1)c1cccc(Oc2c(Cl)cccc2[N+](=O)[O-])c1 (configuration not stated) |  | inconclusive: 18.3 µM [inhibitor, single point] |
| CCc1noc(C)c1C(=O)Oc1ccc(N(C)S(=O)(=O)c2ccc(C)cc2)cc1 |  | inconclusive: 8.2 µM [inhibitor, partial curve, poor fit] |
| O=C(Oc1ccnc2cc(Cl)ccc12)N1CCOCC1 | inactive: -4.55% |  |
| COC(=O)c1[nH]c2ccccc2c1NC(=O)CN1CCCCCC1 |  | inconclusive: 9.2 µM [inhibitor, partial curve] |
| O=C(Nc1ccc(F)cc1)NC1CCCCC1 |  | inconclusive: 18.4 µM [activator, partial curve] |
| CCN(CC)S(=O)(=O)c1ccc(Cl)c(NC(=O)COC(=O)c2c(C)noc2C)c1 |  | active: 18.4 µM |

Nothing new here: entries from further up.

| SMILES | activity change, negative = inhibition | Potency |
| --- | --- | --- |
| COCCNC(=O)/C(C#N)=C/c1c(N2CCN(c3ccc(OC)cc3)CC2)nc2c(C)cccn2c1=O |  | inconclusive: 23.1 µM [inhibitor, partial curve, poor fit] |
| COc1nc(N/N=C/c2cc3c(cc2Br)OCO3)nc(N2CCOCC2)n1 |  | inconclusive: 25.9 µM [inhibitor, single point] |
| CCOC(=O)c1c(C)[nH]c(C(=O)Nc2ccc3c(c2)OCO3)c1C |  | inconclusive: 2.59 µM [activator, full curve] |
| COc1nc(-c2ccccc2)ccc1-c1noc(-c2ccccc2F)n1 |  | inconclusive: 6.51 µM [activator, partial curve] |
| Cc1ccc(S(=O)(=O)N2CCCCC2)cc1NC(=O)CSCC(=O)O | inactive: 10.9% |  |
| COc1ccc(/C=N/NC(=O)CSc2nnc(C)n2-c2ccccc2)c(OC)c1OC |  | inconclusive: 23.1 µM [inhibitor, partial curve, poor fit] |
| CCSc1nc2c(c(=O)[nH]c(=O)n2C)n1Cc1ccc(Cl)cc1 |  | inconclusive: 6.51 µM [inhibitor, single point] |
| O=C(NCc1ccco1)c1ccc(-c2ccc(Cl)cc2)o1 |  | inconclusive: 9.2 µM [activator, partial curve, poor fit] |
| COc1ccc(OC)c(C2SCCN2S(=O)(=O)c2cccc(C(F)(F)F)c2)c1 (configuration not stated) |  | inconclusive: 29.1 µM [inhibitor, single point] |
| COCCCNC(=O)COc1ccc(-c2nccc(-c3ccccn3)n2)cc1 |  | inconclusive: 18.4 µM [inhibitor, single point] |
| Clc1cccc(Cl)c1/C=N\Nc1nccs1 | inactive: -0.234% |  |
| O=C(NC(=S)Nc1ccc(CN2CCOCC2)cc1)c1ccc([N+](=O)[O-])cc1 |  | inconclusive: 25.9 µM [inhibitor, single point] |
| CN1CCC(CNC(=O)Nc2csc3ccccc23)CC1 | inactive: -6.5% |  |
| CCCc1cc(C(=O)N2CCCC(Cc3ccccc3C)(C(=O)OCC)C2)no1 (configuration not stated) |  | inconclusive: 0.517 µM [inhibitor, partial curve, poor fit] |
| O=C(Cc1cc(=O)[nH][nH]1)N/N=C/c1ccccc1Cl | inactive: 11.1% |  |
| CCOC(=O)c1c(NC(=O)COC(=O)c2cnccn2)sc(C)c1C |  | inconclusive: 9.2 µM [activator, single point] |
| CCc1ccc(CN(Cc2cccnc2)C(=O)/C=C/c2ccc(OC)cc2)cc1 |  | inconclusive: 29.1 µM [inhibitor, single point] |
| O=C(Nc1ccccc1C(=O)Nc1nncs1)c1ccccc1 |  | active: 20.6 µM |
| O=C(NCC1CCCO1)c1cccc(Oc2c(Cl)cccc2[N+](=O)[O-])c1 (configuration not stated) |  | inconclusive: 18.3 µM [inhibitor, single point] |
| CCc1noc(C)c1C(=O)Oc1ccc(N(C)S(=O)(=O)c2ccc(C)cc2)cc1 |  | inconclusive: 8.2 µM [inhibitor, partial curve, poor fit] |
| O=C(Oc1ccnc2cc(Cl)ccc12)N1CCOCC1 | inactive: -4.55% |  |

Following part:

| SMILES | activity change, negative = inhibition | Potency |
| --- | --- | --- |
| CCCNC(=S)NCc1ccc(Cl)cc1 | inactive: 17% |  |
| COc1cc([N+](=O)[O-])ccc1-c1ccc(/C=N/NC(=O)c2ccccc2O)o1 |  | active: 14.6 µM |
| CC(C)c1cccc(C(C)C)c1NC(=O)CN1CCCC1 |  | inconclusive: 29.1 µM [activator, partial curve, poor fit] |
| CCCCc1ccc(NC(=S)NCc2ccccc2OC)cc1 |  | inconclusive: 20.6 µM [inhibitor, partial curve, poor fit] |
| CCCc1ccc(S(=O)(=O)N(C)S(=O)(=O)c2ccc(F)cc2)cc1 | inactive: -8.93% |  |
| CCn1c(=O)cc(OCC(=O)Nc2nc(C)cs2)c2ccccc21 |  | inconclusive: 5.8 µM [activator, partial curve, poor fit] |
| C=CCNC(=O)NC(=S)c1ccccc1 |  | inconclusive: 16.4 µM [activator, partial curve, poor fit] |
| COC(CNC(=O)c1cnn2c(C)c(Cc3ccccc3)c(C)nc12)OC |  | inconclusive: 16.4 µM [inhibitor, single point] |
| CC(C)c1csc(CN2CCCC(CCC(=O)NCc3ccccc3F)C2)n1 (configuration not stated) |  | inconclusive: 20.6 µM [inhibitor, single point] |
| Cc1cc(Br)ccc1NC(=O)CNC(=O)c1cnn(C)c1 | inactive: 28.6% |  |
| Brc1ccc(NC2=Nc3ccccc3CC2)cc1 |  | inconclusive: 15.8 µM [activator, single point] |
| Cn1c(=O)c(C(=O)CCl)c(N)n(CC2CC2)c1=O |  | inconclusive: 7.31 µM [inhibitor, partial curve, poor fit] |
| Cc1ccc2cc(CCNC(=O)c3ccc4c(c3)OCO4)c(=O)[nH]c2c1C |  | inconclusive: 18.4 µM [inhibitor, single point] |
| COc1cccc(-n2nnc3c(=O)n(Cc4ccc(Cl)cc4)cnc32)c1 | inactive: 0.862% |  |
| Cc1ccc2c(CSc3nnc(N)s3)cc(=O)oc2c1 |  | inconclusive: 20.6 µM [activator, partial curve, poor fit] |
| CCn1c(/C=C2/C(=O)N(C)c3ccccc32)nc2ccccc2c1=O | inactive: -3.06% |  |
| CC(NC(=O)c1cc(S(=O)(=O)N(C)C)ccc1Cl)C1CC2CCC1C2 (configuration not stated) | inactive: -21.8% |  |
| C/C(=N\Nc1ccc(S(N)(=O)=O)cc1[N+](=O)[O-])c1cccs1 |  | inconclusive: 0.82 µM [inhibitor, single point] |
| O=C(CCl)Nc1ccc(Sc2ccc(NC(=O)CCl)cc2)cc1 |  | inconclusive: 6.51 µM [activator, single point] |
| CNC(=S)NNc1nc(C)cc(C)n1 | inactive: 10% |  |
| O=S(=O)(c1cccc(COc2ccc(Cl)cc2Cl)c1)N1CCOCC1 | inactive: -5.87% |  |
| NC(=O)c1nsc(C(=O)N(Cc2ccccc2Cl)C(C(=O)NCC2CCCO2)c2ccc(O)cc2)c1N (configuration not stated) | inactive: 4.35% |  |
| Nc1ccc(Cl)c(S(=O)(=O)Nc2cccc(Cl)c2)c1 | inactive: 7.28% |  |
| C/C(=N\NC(=O)c1ccc(-c2ccccc2)cc1)C1C(=O)c2ccccc2C1=O |  | inconclusive: 20.6 µM [inhibitor, single point] |
